According to PMC10538752:
These are yes or no findings as the source states them, for the method shown. In cells and extracts the contact can be indirect.

Protein sequences, listed by entry. Tags and fused reporters are not part of them. Residues count along the entry.
UniProt P84077: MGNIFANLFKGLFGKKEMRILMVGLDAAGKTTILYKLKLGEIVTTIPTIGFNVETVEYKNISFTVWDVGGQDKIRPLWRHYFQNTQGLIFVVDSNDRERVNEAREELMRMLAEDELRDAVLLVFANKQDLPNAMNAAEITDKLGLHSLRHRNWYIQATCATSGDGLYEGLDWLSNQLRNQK
UniProt P84085: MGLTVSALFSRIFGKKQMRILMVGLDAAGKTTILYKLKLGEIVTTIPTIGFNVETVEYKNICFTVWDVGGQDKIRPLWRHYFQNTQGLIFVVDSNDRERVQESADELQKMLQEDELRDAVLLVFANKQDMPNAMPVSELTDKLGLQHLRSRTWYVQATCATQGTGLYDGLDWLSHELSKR
UniProt P61204: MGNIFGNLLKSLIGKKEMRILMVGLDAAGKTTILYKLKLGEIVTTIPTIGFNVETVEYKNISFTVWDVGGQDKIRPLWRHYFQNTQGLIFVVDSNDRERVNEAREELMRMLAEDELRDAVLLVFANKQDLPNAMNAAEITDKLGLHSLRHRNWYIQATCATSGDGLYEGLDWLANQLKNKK
UniProt P62330: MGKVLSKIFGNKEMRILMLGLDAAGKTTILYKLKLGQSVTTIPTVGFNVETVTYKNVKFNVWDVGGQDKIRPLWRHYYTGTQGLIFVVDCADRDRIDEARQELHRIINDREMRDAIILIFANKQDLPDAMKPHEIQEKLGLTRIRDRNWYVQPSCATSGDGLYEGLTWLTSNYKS
UniProt P18085: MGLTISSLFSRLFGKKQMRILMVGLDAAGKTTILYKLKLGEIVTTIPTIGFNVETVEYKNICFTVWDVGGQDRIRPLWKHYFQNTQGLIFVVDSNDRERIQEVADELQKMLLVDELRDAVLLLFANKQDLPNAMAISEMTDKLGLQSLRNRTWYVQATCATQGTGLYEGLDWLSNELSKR
UniProt P03313, residues 1101-1429: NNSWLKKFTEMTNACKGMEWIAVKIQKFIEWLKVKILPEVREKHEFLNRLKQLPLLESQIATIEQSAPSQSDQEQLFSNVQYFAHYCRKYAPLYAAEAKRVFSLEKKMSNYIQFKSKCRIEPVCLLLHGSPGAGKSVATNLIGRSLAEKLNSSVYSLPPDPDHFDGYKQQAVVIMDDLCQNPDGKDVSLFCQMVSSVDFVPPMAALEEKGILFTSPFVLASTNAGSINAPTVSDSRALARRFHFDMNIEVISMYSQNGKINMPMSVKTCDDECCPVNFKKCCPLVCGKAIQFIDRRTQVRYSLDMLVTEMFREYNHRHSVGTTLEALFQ
UniProt P03300, residues 1128-1456: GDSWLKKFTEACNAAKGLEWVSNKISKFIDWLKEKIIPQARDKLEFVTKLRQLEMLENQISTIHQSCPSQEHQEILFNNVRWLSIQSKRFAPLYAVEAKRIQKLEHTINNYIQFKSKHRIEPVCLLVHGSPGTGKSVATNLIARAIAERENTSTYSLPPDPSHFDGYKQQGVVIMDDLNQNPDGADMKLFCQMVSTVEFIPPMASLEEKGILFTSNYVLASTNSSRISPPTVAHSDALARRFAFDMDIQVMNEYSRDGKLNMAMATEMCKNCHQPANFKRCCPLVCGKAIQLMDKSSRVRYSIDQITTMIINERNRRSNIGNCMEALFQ

What was measured:
[1] = target: human Arf1 fused to Venus fluorescent protein (human) (UniProt P84077); experiment: co-IP
[2] = target: human Arf5 fused to EGFP (human) (UniProt P84085); experiment: co-IP; […] (3:1), ~18 h; […] (0.1 M Tris-HCl pH 7.8, 0.5% Triton X100); […]
[3] = target: human Arf3 fused to EGFP (human) (UniProt P61204); experiment: as above
[4] = target: human Arf6 fused to EGFP (human) (UniProt P62330); experiment: as above
[5] = target: human Arf4 fused to EGFP (human) (UniProt P18085); experiment: as above

Substance	binding [1]	binding [2]	binding [3]	binding [4]	binding [5]
2C of Coxsackie virus B3, made in infected cells (from UniProt P03313 1101-1429)	no binding	–	–	–	–
poliovirus 2C, wt, expressed from plasmid pM1-2C (from UniProt P03300 1128-1456)	–	no binding	no binding	no binding	no binding
